Some results were stated once for a whole list of compounds, not compound by compound.
Experiments:
NF-κB = experiment: Inhibition of TNFα-induced NF-κB activation (pNFκB-luc luciferase reporter) in 293 HEK cells; format: cell-based; details: HEK 293 pNFκB-luc cells, 10 ng/ml recombinant human TNFα for 4 hours, compound 0.1-10 μM
TNFα = experiment: Inhibition of LPS-induced TNFα mRNA expression in THP-1 cells (bDNA assay); format: cell-based, human; details: LPS 1 hour, compound 0.1-10 μM
IL-1β = experiment: Inhibition of LPS-induced IL-1β mRNA expression in THP-1 cells (bDNA assay); format: cell-based, human; details: LPS 1 hour, compound 0.1-10 μM
iNOS = experiment: Inhibition of LPS/mIFN-γ-induced iNOS mRNA expression in RAW 264.7 cells (bDNA assay); format: cell-based, mouse; details: LPS and mIFN-γ 8 hours, compound 0.1-10 μM

C=C1C(=O)O[C@@H]2/C=C(\C)CCC=C(CNCCC)CCC12 (stereo in doubt) [Compound 7, (3aR,6Z,10E,11aR)-10-methyl-3-methylene-6-((propylamino)methyl)-3,3a,4,5,8,9-hexahydrocyclodeca[b]furan-2(11aH)-one]
inhibited: inhibition of TNFα-induced NF-κB activation (NF-κB) | inhibition of mRNA expression of TNFα (TNFα) | inhibition of mRNA expression of IL-1β (IL-1β) | inhibition of mRNA expression of iNOS (iNOS)

C=C1C(=O)O[C@@H]2/C=C(\C)CC/C=C(/CN3CCOCC3)CC[C@@H]12 [Compound 9, (3aR,6Z,10E,11aR)-10-methyl-3-methylene-6-(morpholinomethyl)-3,3a,4,5,8,9, hexahydrocyclodeca[b]furan-2(11aH)-one]
inhibited: inhibition of TNFα-induced NF-κB activation (NF-κB) | inhibition of mRNA expression of TNFα (TNFα) | inhibition of mRNA expression of IL-1β (IL-1β) | inhibition of mRNA expression of iNOS (iNOS)

C=C1C(=O)O[C@@H]2/C=C(\C)CCC=C(C(=O)O)CCC12 (stereo in doubt) [Compound 1, (3aR,6Z,10E,11aR)-10-methyl-3-methylene-2-oxo-2,3,3a,4,5,8,9,11a-octahydrocyclodeca [b]furan-6-carboxylic acid]
inhibited: inhibition of TNFα-induced NF-κB activation (NF-κB) | inhibition of mRNA expression of TNFα (TNFα) | inhibition of mRNA expression of IL-1β (IL-1β) | inhibition of mRNA expression of iNOS (iNOS)

C=C1C(=O)O[C@@H]2/C=C(\C)CCC=C(CNCCO)CCC12 (stereo in doubt) [Compound 8, (3aR,6Z,10E,11aR)-6-((2-hydroxyethylamino)methyl)-10-methyl-3-methylene-3,3a,4,5,8,9-hexahydrocyclodeca[b]furan-2(11aH)-one]
inhibited: inhibition of TNFα-induced NF-κB activation (NF-κB) | inhibition of mRNA expression of TNFα (TNFα) | inhibition of mRNA expression of IL-1β (IL-1β) | inhibition of mRNA expression of iNOS (iNOS)

C=C1C(=O)O[C@@H]2/C=C(\C)CCC=C(C(=O)NCc3ccc(F)cc3)CCC12 (stereo in doubt) [Compound 10, (3aR,6Z,10E,11aR)-10-methyl-3-methylene-2-oxo-N-(4-fluoro-benzyl)-2,3,3a,4,5,8,9,11a-octahydrocyclodeca[b]furan-6-carboxamide]
inhibited: inhibition of TNFα-induced NF-κB activation (NF-κB) | inhibition of mRNA expression of TNFα (TNFα) | inhibition of mRNA expression of IL-1β (IL-1β) | inhibition of mRNA expression of iNOS (iNOS)

C=C1C(=O)O[C@@H]2/C=C(\C)CCC=C(COC(=O)NC3CC3)CCC12 (stereo in doubt) [Compound 15, ((3aR,6Z,10E,11aR)-10-methyl-3-methylene-2-oxo-2,3,3a,4,5,8,9,11a-octahydrocyclodeca[b]furan-6-yl)methyl cyclopropylcarbamate]
inhibited: inhibition of TNFα-induced NF-κB activation (NF-κB) | inhibition of mRNA expression of TNFα (TNFα) | inhibition of mRNA expression of IL-1β (IL-1β) | inhibition of mRNA expression of iNOS (iNOS)

C=C1C(=O)O[C@@H]2/C=C(\C)CCC=C(C(=O)N(CC)CC)CCC12 (stereo in doubt) [Compound 3, (3aR,6Z,10E,11aR)-N,N-diethyl-10-methyl-3-methylene-2-oxo-2,3,3a,4,5,8,9,11a-octahydrocyclodeca[b]furan-6-carboxamide]
inhibited: inhibition of TNFα-induced NF-κB activation (NF-κB) | inhibition of mRNA expression of TNFα (TNFα) | inhibition of mRNA expression of IL-1β (IL-1β) | inhibition of mRNA expression of iNOS (iNOS)

C=C1C(=O)O[C@@H]2/C=C(\C)CCC=C(C(=O)Nc3ccc(Oc4ccccc4)cc3)CCC12 (stereo in doubt) [Compound 11, (3aR,6Z,10E,11aR)-10-methyl-3-methylene-2-oxo-N-(4-phenoxyphenyl)-2,3,3a,4,5,8,9,11a-octahydrocyclodeca[b]furan-6-carboxamide]
inhibited: inhibition of TNFα-induced NF-κB activation (NF-κB) | inhibition of mRNA expression of TNFα (TNFα) | inhibition of mRNA expression of IL-1β (IL-1β) | inhibition of mRNA expression of iNOS (iNOS)

C=C1C(=O)O[C@@H]2/C=C(\C)CC/C=C(/C(=O)Nc3cccc(C(=O)NC)c3)CC[C@@H]12 [Compound 13]
inhibited: inhibition of TNFα-induced NF-κB activation (NF-κB) | inhibition of mRNA expression of TNFα (TNFα) | inhibition of mRNA expression of IL-1β (IL-1β) | inhibition of mRNA expression of iNOS (iNOS)

C=C1C(=O)O[C@@H]2/C=C(\C)CCC=C(C(=O)N3CCCCC3)CCC12 (stereo in doubt) [Compound 5, (3aR,6Z,10E,11aR)-10-methyl-3-methylene-6-(piperidine-1-carbonyl)-3,3a,4,5,8,9-hexahydrocyclodeca[b]furan-2(11aH)-one]
inhibited: inhibition of TNFα-induced NF-κB activation (NF-κB) | inhibition of mRNA expression of TNFα (TNFα) | inhibition of mRNA expression of IL-1β (IL-1β) | inhibition of mRNA expression of iNOS (iNOS)

C=C1C(=O)O[C@@H]2/C=C(\C)CCC=C(C(=O)NCCC)CCC12 (stereo in doubt) [Compound 4, (3aR,6Z,10E,11aR)-10-methyl-3-methylene-2-oxo-N-propyl-2,3,3a,4,5,8,9,11a-octahydrocyclodeca[b]furan-6-carboxamide]
inhibited: inhibition of TNFα-induced NF-κB activation (NF-κB) | inhibition of mRNA expression of TNFα (TNFα) | inhibition of mRNA expression of IL-1β (IL-1β) | inhibition of mRNA expression of iNOS (iNOS)

C=C1C(=O)O[C@@H]2/C=C(\C)CCC=C(C(=O)NCCOC)CCC12 (stereo in doubt) [Compound 12, (3aR,6Z,10E,11aR)-10-methyl-3-methylene-2-oxo-N-(2-methoxyethyl)-2,3,3a,4,5,8,9,11a-octahydrocyclodeca[b]furan-6-carboxamide]
inhibited: inhibition of TNFα-induced NF-κB activation (NF-κB) | inhibition of mRNA expression of TNFα (TNFα) | inhibition of mRNA expression of IL-1β (IL-1β) | inhibition of mRNA expression of iNOS (iNOS)

C=C1C(=O)O[C@@H]2/C=C(\C)CCC=C(C(=O)OC)CCC12 (stereo in doubt) [Compound 14, (3aR,6Z,10E,11aR)-methyl-10-methyl-3-methylene-2-oxo-2,3,3a,4,5,8,9,11a-octahydrocyclodeca[b]furan-6-carboxylate]
inhibited: inhibition of TNFα-induced NF-κB activation (NF-κB) | inhibition of mRNA expression of TNFα (TNFα) | inhibition of mRNA expression of IL-1β (IL-1β) | inhibition of mRNA expression of iNOS (iNOS)

C=C1C(=O)O[C@@H]2/C=C(\C)CC/C=C(/C(=O)NC)CC[C@@H]12 [Compound 2, (3aR,6Z,10E,11aR)-N,10-dimethyl-3-methylene-2-oxo-2,3,3a,4,5,8,9,1la-octahydrocyclodeca[b]furan-6-carboxamide]
inhibited: inhibition of TNFα-induced NF-κB activation (NF-κB) | inhibition of mRNA expression of TNFα (TNFα) | inhibition of mRNA expression of IL-1β (IL-1β) | inhibition of mRNA expression of iNOS (iNOS)

C=C1C(=O)O[C@@H]2/C=C(\C)CCC=C(COC(=O)NCC)CCC12 (stereo in doubt) [Compound 17, ((3aR,6Z,10E,11aR)-10-methyl-3-methylene-2-oxo-2,3,3a,4,5,8,9,11a-octahydrocyclodeca[b]furan-6-yl)methyl ethylcarbamate]
inhibited: inhibition of TNFα-induced NF-κB activation (NF-κB) | inhibition of mRNA expression of TNFα (TNFα) | inhibition of mRNA expression of IL-1β (IL-1β) | inhibition of mRNA expression of iNOS (iNOS)

C=C1C(=O)O[C@@H]2/C=C(\C)CCC=C(C(=O)N3CCOCC3)CCC12 (stereo in doubt) [Compound 6, (3aR,6Z,10E,11aR)-10-methyl-3-methylene-6-(morpholine-4-carbonyl)-3,3a,4,5,8,9-hexahydrocyclodeca[b]furan-2(11aH)-one]
inhibited: inhibition of TNFα-induced NF-κB activation (NF-κB) | inhibition of mRNA expression of TNFα (TNFα) | inhibition of mRNA expression of IL-1β (IL-1β) | inhibition of mRNA expression of iNOS (iNOS)

C=C1C(=O)O[C@@H]2/C=C(\C)CCC=C(COC(=O)NCc3ccccc3)CCC12 (stereo in doubt) [Compound 16, ((3aR,6Z,10E,11aR)-10-methyl-3-methylene-2-oxo-2,3,3a,4,5,8,9,11a-octahydrocyclodeca[b]furan-6-yl)methyl benzylcarbamate]
inhibited: inhibition of TNFα-induced NF-κB activation (NF-κB) | inhibition of mRNA expression of TNFα (TNFα) | inhibition of mRNA expression of IL-1β (IL-1β) | inhibition of mRNA expression of iNOS (iNOS)

Source: patent publication US7622465B2, “Costunolide derivatives” (Hutchison Medipharma Enterprises Limited, priority 2006, dated 2009)
